Results are given in words; binding and its absence hold for the method and conditions named. For some of these results: Binding seen in cells or lysates may run through a third protein. Some entries that bind do so weakly or less than the wild type. Tags and fused reporters may be left off the sequences shown.
What was measured:
[1] = target: T1, GST-fused HECTD3 DOC domain (216-393 aa) (UniProt Q5T447); test: pull-down; GST fusions and Flag-tagged partner cotransfected in HEK293T for 24 h; lysates on Glutathione Sepharose beads, 2 h at 4 C, five washes; Western blot
T1 sequence: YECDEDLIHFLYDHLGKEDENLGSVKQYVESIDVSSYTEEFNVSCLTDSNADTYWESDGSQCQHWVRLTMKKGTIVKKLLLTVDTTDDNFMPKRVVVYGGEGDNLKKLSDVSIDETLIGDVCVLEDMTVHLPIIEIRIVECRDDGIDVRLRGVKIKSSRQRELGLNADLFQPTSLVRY

[2] = target: T2, purified recombinant GST-HECTD3 (UniProt Q5T447); test: pull-down; purified His-p62 (3 ug) mixed with GST-UbcH5b (6 ug) or GST-HECTD3 (6 ug), Glutathione Sepharose beads, 2 h at 4 C, five washes; blot with anti-p62 antibody; both purified
T2 sequence: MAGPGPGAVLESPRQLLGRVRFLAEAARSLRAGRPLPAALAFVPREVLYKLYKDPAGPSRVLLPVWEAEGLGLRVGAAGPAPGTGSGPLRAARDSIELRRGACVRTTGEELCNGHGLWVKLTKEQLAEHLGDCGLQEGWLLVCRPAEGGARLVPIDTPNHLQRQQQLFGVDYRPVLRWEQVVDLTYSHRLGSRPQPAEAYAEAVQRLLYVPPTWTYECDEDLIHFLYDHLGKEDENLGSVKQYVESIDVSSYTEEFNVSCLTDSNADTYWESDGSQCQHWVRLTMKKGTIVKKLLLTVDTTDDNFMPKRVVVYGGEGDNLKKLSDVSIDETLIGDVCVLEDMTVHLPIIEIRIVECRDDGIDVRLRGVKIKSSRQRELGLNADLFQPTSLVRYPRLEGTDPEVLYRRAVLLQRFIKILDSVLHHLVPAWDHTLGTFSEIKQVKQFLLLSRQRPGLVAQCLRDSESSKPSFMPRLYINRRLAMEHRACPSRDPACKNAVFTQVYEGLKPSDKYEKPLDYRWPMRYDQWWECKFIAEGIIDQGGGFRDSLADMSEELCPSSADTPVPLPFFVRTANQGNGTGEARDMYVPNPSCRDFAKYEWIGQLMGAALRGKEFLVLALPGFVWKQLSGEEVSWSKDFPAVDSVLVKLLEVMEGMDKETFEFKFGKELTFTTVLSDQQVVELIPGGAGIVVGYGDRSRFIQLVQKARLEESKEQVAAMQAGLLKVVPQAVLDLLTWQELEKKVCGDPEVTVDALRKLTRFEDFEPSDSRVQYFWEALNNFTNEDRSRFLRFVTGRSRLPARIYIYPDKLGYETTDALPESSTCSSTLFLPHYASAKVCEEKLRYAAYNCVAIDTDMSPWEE

[3] = target: GST-p62 (UniProt Q13501); test: pull-down; GST fusions and Flag-tagged partner cotransfected in HEK293T for 24 h; lysates on Glutathione Sepharose beads, 2 h at 4 C, five washes; Western blot
[4] = target: endogenous p62 (human (endogenous in HEK293T)) (UniProt Q13501); test: co-IP; p62 rabbit antibody (3 ug) with Protein A/G on whole HEK293T lysates, 12 h at 4 C; IP buffer 0.5% NP-40, 50 mM Tris-HCl pH 7.4, 50 mM EDTA, 150 mM NaCl; rabbit IgG as negative control; Western blot

p62-Flag (from UniProt Q13501 1-440)
binding [1]: binds

purified His-p62 (from UniProt Q13501 1-440)
binding [2]: binds

B1: exogenously expressed Flag-HECTD3 (enzyme, UniProt Q5T447 1-861)
chain: MAGPGPGAVLESPRQLLGRVRFLAEAARSLRAGRPLPAALAFVPREVLYKLYKDPAGPSRVLLPVWEAEGLGLRVGAAGPAPGTGSGPLRAARDSIELRRGACVRTTGEELCNGHGLWVKLTKEQLAEHLGDCGLQEGWLLVCRPAEGGARLVPIDTPNHLQRQQQLFGVDYRPVLRWEQVVDLTYSHRLGSRPQPAEAYAEAVQRLLYVPPTWTYECDEDLIHFLYDHLGKEDENLGSVKQYVESIDVSSYTEEFNVSCLTDSNADTYWESDGSQCQHWVRLTMKKGTIVKKLLLTVDTTDDNFMPKRVVVYGGEGDNLKKLSDVSIDETLIGDVCVLEDMTVHLPIIEIRIVECRDDGIDVRLRGVKIKSSRQRELGLNADLFQPTSLVRYPRLEGTDPEVLYRRAVLLQRFIKILDSVLHHLVPAWDHTLGTFSEIKQVKQFLLLSRQRPGLVAQCLRDSESSKPSFMPRLYINRRLAMEHRACPSRDPACKNAVFTQVYEGLKPSDKYEKPLDYRWPMRYDQWWECKFIAEGIIDQGGGFRDSLADMSEELCPSSADTPVPLPFFVRTANQGNGTGEARDMYVPNPSCRDFAKYEWIGQLMGAALRGKEFLVLALPGFVWKQLSGEEVSWSKDFPAVDSVLVKLLEVMEGMDKETFEFKFGKELTFTTVLSDQQVVELIPGGAGIVVGYGDRSRFIQLVQKARLEESKEQVAAMQAGLLKVVPQAVLDLLTWQELEKKVCGDPEVTVDALRKLTRFEDFEPSDSRVQYFWEALNNFTNEDRSRFLRFVTGRSRLPARIYIYPDKLGYETTDALPESSTCSSTLFLPHYASAKVCEEKLRYAAYNCVAIDTDMSPWEE
binding [3]: binds | binding [4]: binds
